Experimental data: PubChem BioAssay AID330 (DTP/NCI, 2004)
The list does not hold the whole screen: it is rich in T/C values a quarter to a half above the control, in often repeated tests (any T/C) and in doses without a T/C. Other doses and runs of a compound stand elsewhere. T/C: endpoint of the treated group in % of that of the vehicle group. Some doses have a count of surviving animals in place of a T/C: the source holds a T/C of zero for them, seemingly a mark for toxic or unscored doses. Some doses without a T/C left all or most animals alive at the check, yet need not have been tolerated: survival well below the control is almost never listed, so the zero probably covers shortened survival too. Counts of survivors are from the toxicity check (mostly the fifth day) where no day follows; animals may have died later. Schedules are NCI's codes, taken here to give the interval after Q, in days (D) or hours (H), and the number of doses after X. Some doses were run more than once; the results are listed from low to high. Additions like (4×) count equal records among those shown. Where survival is the endpoint, the PubChem record calls one and a half times the control and up active, and a quarter to a half above the control has no call in these data; cut-offs in other NCI protocols can differ.

System: P388 leukemia ip, CD2F1 mice, survival T/C
Experiment: NCI In Vivo Anticancer Drug Screen. Data for tumor model P388 Leukemia (intraperitoneal) in CD2F1 (CDF1) mice
Details: T/C endpoint: median survival time, higher T/C = longer survival
[1] = dose: 200.0 mg/kg/injection, schedule: Q01DX009 (ip), vehicle: Klucel (hydroxypropylcellulose) (HPC)
[2] = dose: 100.0 mg/kg/injection, schedule: Q01DX009 (ip), vehicle: saline
[3] = dose: 200.0 mg/kg/injection, schedule: Q01DX009 (ip), vehicle: saline
[4] = dose: 200.0 mg/kg/injection, schedule: Q01DX009 (ip), vehicle: saline with Tween-80
[5] = dose: 200.0 mg/kg/injection, schedule: Q01DX009 (ip), vehicle: suspension in saline
[6] = dose: 200.0 mg/kg/injection, schedule: Q01DX005 (ip), vehicle: saline with Tween-80
[7] = dose: 400.0 mg/kg/injection, schedule: Q01DX001 (ip), vehicle: saline with Tween-80
[8] = dose: 200.0 mg/kg/injection, schedule: Q01DX005 (ip), vehicle: Klucel (hydroxypropylcellulose) (HPC)

OCC1OC(n2ccc3c(NO)ncnc32)C(O)C1O (stereo not given)
T/C (dose: 0.46 mg/kg/injection, schedule: Q01DX005 (ip), vehicle: Klucel (hydroxypropylcellulose) (HPC)): 127 % of control
T/C (dose: 0.93 mg/kg/injection, schedule: Q01DX005 (ip), vehicle: Klucel (hydroxypropylcellulose) (HPC)): 126 and 134 % of control
T/C (dose: 1.87 mg/kg/injection, schedule: Q01DX005 (ip), vehicle: Klucel (hydroxypropylcellulose) (HPC)): 126 and 137 % of control
survivor count (dose: 3.75 mg/kg/injection, schedule: Q01DX005 (ip), vehicle: Klucel (hydroxypropylcellulose) (HPC)): 5 of 6 and 6 of 6 (2×)
survivor count (dose: 7.5 mg/kg/injection, schedule: Q01DX005 (ip), vehicle: Klucel (hydroxypropylcellulose) (HPC)): 3 of 6
survivor count (dose: 15.0 mg/kg/injection, schedule: Q01DX005 (ip), vehicle: Klucel (hydroxypropylcellulose) (HPC)): 0 of 6
survivor count (dose: 30.0 mg/kg/injection, schedule: Q01DX005 (ip), vehicle: Klucel (hydroxypropylcellulose) (HPC)): 0 of 6

Cc1ccc(N=C=C(c2ccccc2)c2ccccc2)cc1
survivor count [1]: 6 of 6

CCCCCCCC[N+]1(CC)CCCCC1
survivor count (dose: 50.0 mg/kg/injection, schedule: Q01DX009 (ip), vehicle: saline): 1 of 6
survivor count [2]: 0 of 6
survivor count [3]: 0 of 6

CC(C)(C)c1cc(O)cc(C(=O)O)c1O
survivor count [4]: 2 of 6

O=[N+]([O-])c1ccc(/C(=C/c2ccc(F)cc2)S(=O)(=O)c2ccccc2)o1
survivor count [5]: 6 of 6

C=CC1(C)CCC2C(=CCC3C2(C)CC(O)C(O)C3(C)COC2OC(C(=O)O)C(O)C(O)C2O)C1 (stereo not given) (tested in a mixture with another compound)
survivor count [1]: 4 of 6

C[CH2][Sn]([CH2]C)([N]=C=S)[N]=C=S
T/C (dose: 6.25 mg/kg/injection, schedule: Q01DX009 (ip), vehicle: saline): 147 % of control
survivor count (dose: 50.0 mg/kg/injection, schedule: Q01DX009 (ip), vehicle: suspension in saline): 0 of 6
survivor count (dose: 100.0 mg/kg/injection, schedule: Q01DX009 (ip), vehicle: suspension in saline): 0 of 6
survivor count [5]: 0 of 6

COc1ccc(CCN2CCC(Nc3nc4ccccc4n3Cc3ccc(F)cc3)CC2)cc1
survivor count [6]: 0 of 6

CCOC(=O)C(Cc1ccccc1)NO (stereo not given)
survivor count (dose: 25.0 mg/kg/injection, schedule: Q01DX009 (ip), vehicle: saline with Tween-80): 3 of 6
survivor count (dose: 50.0 mg/kg/injection, schedule: Q01DX009 (ip), vehicle: saline with Tween-80): 6 of 6
survivor count (dose: 100.0 mg/kg/injection, schedule: Q01DX009 (ip), vehicle: saline with Tween-80): 6 of 6
survivor count [4]: 4 of 6

Nc1n[nH]c(-c2ccccc2)n1
survivor count [4]: 6 of 6

CC1=C(Cl)C(=N\S(=O)(=O)c2ccccc2)/c2ccccc2/C1=N/S(=O)(=O)c1ccccc1
survivor count [7]: 0 of 6

CCN(CC)Cc1c(C)[nH]c2cc3c(cc2c1=O)CCCC3
survivor count (dose: 240.0 mg/kg/injection, schedule: Q01DX005 (ip), vehicle: Klucel (hydroxypropylcellulose) (HPC)): 0 of 6

CCOc1cc2c(C)c3ccccc3c(C)c2c2ccccc12
survivor count (dose: 200.0 mg/kg/injection, schedule: Q04DX003 (ip), vehicle: other): 6 of 6

O=S(=O)(O)c1ccc(-c2c3nc(c(-c4ccc(S(=O)(=O)O)cc4)c4ccc([nH]4)c(-c4ccc(S(=O)(=O)O)cc4)c4nc(c(-c5ccc(S(=O)(=O)O)cc5)c5ccc2[nH]5)C=C4)C=C3)cc1
survivor count (dose: 25.0 mg/kg/injection, schedule: Q01DX009 (ip), vehicle: distilled water + Tween-80): 6 of 6
survivor count (dose: 50.0 mg/kg/injection, schedule: Q01DX009 (ip), vehicle: distilled water + Tween-80): 6 of 6
survivor count (dose: 100.0 mg/kg/injection, schedule: Q01DX009 (ip), vehicle: distilled water + Tween-80): 3 of 6
survivor count (dose: 200.0 mg/kg/injection, schedule: Q01DX009 (ip), vehicle: distilled water + Tween-80): 0 of 6

O=[N+]([O-])c1ccc(/C=C(/c2ccc([N+](=O)[O-])o2)S(=O)(=O)c2ccccc2)o1
survivor count [5]: 3 of 6

CN(C)N=Nc1ccc(C(N)=O)cc1
T/C [2]: 133 % of control

Cn1c2ccccc2c2nnc(N/N=C/c3ccccn3)nc21
T/C (dose: 400.0 mg/kg/injection, schedule: Q04DX002 (ip), vehicle: saline with Tween-80): 127 % of control

C=CC(O)CN1CC1 (stereo not given)
T/C (dose: 0.62 mg/kg/injection, schedule: Q01DX009 (ip), vehicle: saline): 125 % of control
T/C (dose: 1.5 mg/kg/injection, schedule: Q04DX003 (ip), vehicle: saline): 140 % of control
survivor count (dose: 5.0 mg/kg/injection, schedule: Q01DX009 (ip), vehicle: saline): 0 of 6
survivor count (dose: 10.0 mg/kg/injection, schedule: Q01DX009 (ip), vehicle: saline): 0 of 6
T/C (dose: 15.0 mg/kg/injection, schedule: Q04DX003 (ip), vehicle: saline): 136 % of control
survivor count (dose: 100.0 mg/kg/injection, schedule: Q04DX003 (ip), vehicle: saline with Tween-80): 0 of 6
survivor count (dose: 200.0 mg/kg/injection, schedule: Q04DX003 (ip), vehicle: saline with Tween-80): 0 of 6
survivor count (dose: 400.0 mg/kg/injection, schedule: Q04DX003 (ip), vehicle: saline with Tween-80): 0 of 6

OC1COC2C(O)COC12 (stereo not given)
survivor count [3]: 5 of 6

Clc1nnc(-c2ccccc2)s1
survivor count (dose: 200.0 mg/kg/injection, schedule: Q04DX003 (ip), vehicle: Klucel (hydroxypropylcellulose) (HPC)): 0 of 6

O=[N+]([O-])c1cccc2c1nnn2OC1CCCC1
survivor count [7]: 2 of 6

Cn1c(N)c(C(=O)/C=C/c2ccccc2)c(=O)n(C)c1=O
survivor count [1]: 6 of 6

c1ccc([Se][Se]c2ccccn2)nc1
survivor count (dose: 50.0 mg/kg/injection, schedule: Q01DX005 (ip), vehicle: Klucel (hydroxypropylcellulose) (HPC)): 3 of 6
survivor count (dose: 100.0 mg/kg/injection, schedule: Q01DX005 (ip), vehicle: Klucel (hydroxypropylcellulose) (HPC)): 0 of 6
survivor count [8]: 0 of 6

O=C(O)c1cc(C(=O)CC(=O)c2cc(C(=O)O)c(O)c3ccccc23)c2ccccc2c1O
survivor count [4]: 0 of 6

CCC1=CC2CN(CCc3c([nH]c4ccccc34)C(C(=O)OC)(c3cc4c(cc3OC)N(C=O)C3C(O)(C(=O)NC)C(OC(C)=O)C5(CC)C=CCN6CCC43C65)C2)C1 (stereo not given)
T/C (dose: 0.25 mg/kg/injection, schedule: Q01DX001 (ip), vehicle: water): 132 and 149 % of control
T/C (dose: 0.5 mg/kg/injection, schedule: Q01DX001 (ip), vehicle: water): 141 and 149 % of control
T/C (dose: 1.0 mg/kg/injection, schedule: Q01DX001 (ip), vehicle: water): 146 % of control
survivor count (dose: 2.0 mg/kg/injection, schedule: Q01DX001 (ip), vehicle: water): 3 of 6
survivor count (dose: 4.0 mg/kg/injection, schedule: Q01DX001 (ip), vehicle: water): 3 of 6
survivor count (dose: 8.0 mg/kg/injection, schedule: Q01DX001 (ip), vehicle: water): 0 of 6
survivor count (dose: 16.0 mg/kg/injection, schedule: Q01DX001 (ip), vehicle: water): 0 of 6
survivor count (dose: 32.0 mg/kg/injection, schedule: Q01DX001 (ip), vehicle: water): 0 of 6

S=c1nc[nH]c2c1ncn2C1CCCCO1 (stereo not given)
survivor count (dose: 400.0 mg/kg/injection, schedule: Q01DX009 (ip), vehicle: saline with Tween-80): 6 of 6
survivor count (dose: 500.0 mg/kg/injection, schedule: Q01DX009 (ip), vehicle: Klucel (hydroxypropylcellulose) (HPC)): 4 of 6

N=C(N)SCc1ccc2nsnc2c1
survivor count (dose: 100.0 mg/kg/injection, schedule: Q01DX005 (ip), vehicle: saline with Tween-80): 2 of 6
survivor count [6]: 0 of 6

O=C(Nc1ccc(Cl)cc1)Nc1nnc2nc(C(C(=O)c3cccs3)c3nc4nnc(NC(=O)Nc5ccc(Cl)cc5)n4[nH]c3=O)c(=O)[nH]n12
survivor count (dose: 240.0 mg/kg/injection, schedule: Q01DX005 (ip), vehicle: saline with Tween-80): 6 of 6

C1CCC2=NCCCN2CC1
survivor count (dose: 50.0 mg/kg/injection, schedule: Q01DX009 (ip), vehicle: Klucel (hydroxypropylcellulose) (HPC)): 0 of 6

CCN(CC)Cc1cc(N=Nc2cc(OC)c(N=Nc3ccc([N+](=O)[O-])cc3)cc2OC)c2cccnc2c1O
T/C [8]: 128 % of control
